Our source for the NP40-soluble protein abundance values is the supplement of paper PMC6411743.

Chains of the proteins cited; added tags and fusions are not shown. Lines headed by an entry give the natural chain unless they say otherwise; changes in a name come on top.
UniProt Q13243: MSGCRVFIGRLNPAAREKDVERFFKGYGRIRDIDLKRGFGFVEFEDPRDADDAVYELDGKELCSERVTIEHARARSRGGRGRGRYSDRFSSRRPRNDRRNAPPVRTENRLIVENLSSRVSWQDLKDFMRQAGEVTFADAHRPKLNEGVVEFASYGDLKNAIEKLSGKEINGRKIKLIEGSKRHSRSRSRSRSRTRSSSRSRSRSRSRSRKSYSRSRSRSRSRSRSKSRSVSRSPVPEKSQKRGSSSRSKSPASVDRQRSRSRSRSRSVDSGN
UniProt Q14457, whole entry: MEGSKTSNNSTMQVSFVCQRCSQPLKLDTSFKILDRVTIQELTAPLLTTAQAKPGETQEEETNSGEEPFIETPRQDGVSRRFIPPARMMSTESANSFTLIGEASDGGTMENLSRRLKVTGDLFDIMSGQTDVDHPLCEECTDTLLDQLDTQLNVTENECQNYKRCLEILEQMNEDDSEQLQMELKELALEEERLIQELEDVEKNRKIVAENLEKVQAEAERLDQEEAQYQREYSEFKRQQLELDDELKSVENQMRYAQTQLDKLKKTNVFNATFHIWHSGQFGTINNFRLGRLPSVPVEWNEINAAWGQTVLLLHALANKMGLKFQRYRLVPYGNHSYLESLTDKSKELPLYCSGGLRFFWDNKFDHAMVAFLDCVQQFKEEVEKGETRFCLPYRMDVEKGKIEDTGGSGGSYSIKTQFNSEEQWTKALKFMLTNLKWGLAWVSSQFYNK
UniProt Q13163: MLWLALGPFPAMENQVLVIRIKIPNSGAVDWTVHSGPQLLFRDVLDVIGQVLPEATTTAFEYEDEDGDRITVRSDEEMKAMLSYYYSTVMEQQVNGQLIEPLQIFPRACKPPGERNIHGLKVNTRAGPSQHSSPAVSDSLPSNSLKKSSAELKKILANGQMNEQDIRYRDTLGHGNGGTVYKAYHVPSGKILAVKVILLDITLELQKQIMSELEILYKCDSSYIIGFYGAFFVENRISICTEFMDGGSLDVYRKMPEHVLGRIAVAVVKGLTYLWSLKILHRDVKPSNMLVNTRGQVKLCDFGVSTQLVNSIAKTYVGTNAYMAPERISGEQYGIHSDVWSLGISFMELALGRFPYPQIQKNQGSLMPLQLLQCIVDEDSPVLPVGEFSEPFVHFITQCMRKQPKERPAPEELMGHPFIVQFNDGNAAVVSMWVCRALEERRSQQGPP
UniProt Q13472: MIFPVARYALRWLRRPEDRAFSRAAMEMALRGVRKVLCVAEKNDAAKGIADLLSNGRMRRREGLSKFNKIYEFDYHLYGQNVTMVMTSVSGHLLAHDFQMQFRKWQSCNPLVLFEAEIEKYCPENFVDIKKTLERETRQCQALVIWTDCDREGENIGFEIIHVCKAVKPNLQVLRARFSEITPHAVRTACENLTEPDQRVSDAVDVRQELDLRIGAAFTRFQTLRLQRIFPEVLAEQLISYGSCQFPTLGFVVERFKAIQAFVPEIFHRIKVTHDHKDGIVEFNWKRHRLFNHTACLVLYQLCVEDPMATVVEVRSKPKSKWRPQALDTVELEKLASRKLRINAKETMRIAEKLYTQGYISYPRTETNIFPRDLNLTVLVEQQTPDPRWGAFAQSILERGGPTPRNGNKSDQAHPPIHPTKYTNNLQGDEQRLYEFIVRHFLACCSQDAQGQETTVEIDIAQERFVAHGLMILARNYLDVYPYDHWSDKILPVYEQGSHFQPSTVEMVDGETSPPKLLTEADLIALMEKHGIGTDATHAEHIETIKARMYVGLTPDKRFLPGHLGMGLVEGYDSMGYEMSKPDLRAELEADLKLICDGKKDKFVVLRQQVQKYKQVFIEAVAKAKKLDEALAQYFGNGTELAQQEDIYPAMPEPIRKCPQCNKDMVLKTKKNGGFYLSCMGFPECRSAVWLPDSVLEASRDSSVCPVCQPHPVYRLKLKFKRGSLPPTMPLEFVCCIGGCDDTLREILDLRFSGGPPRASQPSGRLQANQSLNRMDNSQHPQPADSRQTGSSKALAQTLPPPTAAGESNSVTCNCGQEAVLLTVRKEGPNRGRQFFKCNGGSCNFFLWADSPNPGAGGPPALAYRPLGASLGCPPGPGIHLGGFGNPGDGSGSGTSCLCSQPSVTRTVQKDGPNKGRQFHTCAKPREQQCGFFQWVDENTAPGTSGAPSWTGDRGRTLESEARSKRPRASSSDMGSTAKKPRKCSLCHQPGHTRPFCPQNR
UniProt Q14146: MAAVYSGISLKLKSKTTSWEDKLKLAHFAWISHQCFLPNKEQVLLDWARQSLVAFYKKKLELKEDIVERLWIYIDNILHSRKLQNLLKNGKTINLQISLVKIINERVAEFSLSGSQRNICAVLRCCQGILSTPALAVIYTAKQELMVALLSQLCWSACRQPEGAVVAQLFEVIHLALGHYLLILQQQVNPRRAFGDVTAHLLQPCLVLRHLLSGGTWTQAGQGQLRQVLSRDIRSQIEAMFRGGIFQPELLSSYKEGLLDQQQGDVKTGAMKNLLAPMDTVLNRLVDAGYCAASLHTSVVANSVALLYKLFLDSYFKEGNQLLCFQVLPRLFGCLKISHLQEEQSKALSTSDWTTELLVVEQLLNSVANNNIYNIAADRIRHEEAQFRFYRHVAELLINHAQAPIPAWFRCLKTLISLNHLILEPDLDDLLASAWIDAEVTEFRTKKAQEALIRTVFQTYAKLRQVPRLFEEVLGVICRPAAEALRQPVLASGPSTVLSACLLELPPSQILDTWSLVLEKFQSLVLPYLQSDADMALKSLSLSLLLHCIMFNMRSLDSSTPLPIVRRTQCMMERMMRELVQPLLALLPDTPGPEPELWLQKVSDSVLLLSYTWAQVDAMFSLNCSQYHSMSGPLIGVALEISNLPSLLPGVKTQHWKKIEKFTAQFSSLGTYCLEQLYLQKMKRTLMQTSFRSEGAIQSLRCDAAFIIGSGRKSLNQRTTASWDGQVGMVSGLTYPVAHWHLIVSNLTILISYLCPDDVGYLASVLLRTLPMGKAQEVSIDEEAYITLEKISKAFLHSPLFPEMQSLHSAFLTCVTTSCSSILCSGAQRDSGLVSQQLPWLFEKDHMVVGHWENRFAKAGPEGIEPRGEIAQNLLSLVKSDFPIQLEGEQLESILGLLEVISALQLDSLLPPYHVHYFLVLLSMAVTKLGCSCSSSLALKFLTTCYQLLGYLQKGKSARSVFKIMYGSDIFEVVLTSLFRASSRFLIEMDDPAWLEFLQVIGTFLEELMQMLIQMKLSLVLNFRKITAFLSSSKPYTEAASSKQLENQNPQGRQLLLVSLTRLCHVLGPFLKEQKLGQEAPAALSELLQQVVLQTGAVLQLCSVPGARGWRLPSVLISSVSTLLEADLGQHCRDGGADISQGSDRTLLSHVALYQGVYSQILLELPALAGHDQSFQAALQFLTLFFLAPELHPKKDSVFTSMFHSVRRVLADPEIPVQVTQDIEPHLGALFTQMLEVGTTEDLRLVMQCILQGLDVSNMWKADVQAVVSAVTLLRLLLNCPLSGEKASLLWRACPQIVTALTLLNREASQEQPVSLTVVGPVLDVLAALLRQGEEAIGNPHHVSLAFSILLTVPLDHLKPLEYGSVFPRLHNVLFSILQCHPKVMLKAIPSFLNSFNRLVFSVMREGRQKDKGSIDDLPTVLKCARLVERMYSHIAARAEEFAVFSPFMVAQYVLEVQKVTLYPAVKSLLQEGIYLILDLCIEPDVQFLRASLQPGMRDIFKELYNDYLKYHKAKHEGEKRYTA
UniProt Q14934: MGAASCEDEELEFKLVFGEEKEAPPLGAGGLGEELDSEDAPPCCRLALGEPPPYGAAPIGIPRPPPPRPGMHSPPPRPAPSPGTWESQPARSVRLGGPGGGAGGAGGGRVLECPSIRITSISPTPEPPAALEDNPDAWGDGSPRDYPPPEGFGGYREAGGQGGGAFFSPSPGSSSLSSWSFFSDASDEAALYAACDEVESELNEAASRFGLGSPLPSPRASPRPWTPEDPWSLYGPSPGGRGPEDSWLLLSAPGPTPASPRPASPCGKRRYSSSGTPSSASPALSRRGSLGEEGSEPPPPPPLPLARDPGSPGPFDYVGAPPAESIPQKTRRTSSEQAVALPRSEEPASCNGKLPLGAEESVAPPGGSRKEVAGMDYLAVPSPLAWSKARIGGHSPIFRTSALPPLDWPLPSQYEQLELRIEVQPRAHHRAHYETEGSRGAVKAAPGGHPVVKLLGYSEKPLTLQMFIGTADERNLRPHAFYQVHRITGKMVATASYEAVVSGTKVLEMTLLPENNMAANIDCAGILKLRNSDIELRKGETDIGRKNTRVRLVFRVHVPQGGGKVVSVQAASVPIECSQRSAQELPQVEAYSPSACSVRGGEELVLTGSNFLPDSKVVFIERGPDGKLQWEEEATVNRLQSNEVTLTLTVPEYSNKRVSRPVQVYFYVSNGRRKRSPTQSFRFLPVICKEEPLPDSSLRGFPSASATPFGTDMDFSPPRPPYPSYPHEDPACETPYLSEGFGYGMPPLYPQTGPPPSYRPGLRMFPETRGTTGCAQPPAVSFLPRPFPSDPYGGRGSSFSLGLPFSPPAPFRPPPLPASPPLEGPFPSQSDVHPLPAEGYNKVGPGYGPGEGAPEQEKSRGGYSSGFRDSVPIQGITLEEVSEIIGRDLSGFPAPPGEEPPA
UniProt Q15014, whole entry: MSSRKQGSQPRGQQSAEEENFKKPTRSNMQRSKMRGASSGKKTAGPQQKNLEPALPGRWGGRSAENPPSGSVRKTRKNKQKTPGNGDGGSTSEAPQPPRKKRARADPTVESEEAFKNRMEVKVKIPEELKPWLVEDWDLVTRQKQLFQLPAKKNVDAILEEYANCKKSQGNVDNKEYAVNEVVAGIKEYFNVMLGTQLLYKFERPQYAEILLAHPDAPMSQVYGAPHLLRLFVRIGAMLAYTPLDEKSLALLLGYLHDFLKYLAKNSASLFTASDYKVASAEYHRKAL
UniProt Q13608: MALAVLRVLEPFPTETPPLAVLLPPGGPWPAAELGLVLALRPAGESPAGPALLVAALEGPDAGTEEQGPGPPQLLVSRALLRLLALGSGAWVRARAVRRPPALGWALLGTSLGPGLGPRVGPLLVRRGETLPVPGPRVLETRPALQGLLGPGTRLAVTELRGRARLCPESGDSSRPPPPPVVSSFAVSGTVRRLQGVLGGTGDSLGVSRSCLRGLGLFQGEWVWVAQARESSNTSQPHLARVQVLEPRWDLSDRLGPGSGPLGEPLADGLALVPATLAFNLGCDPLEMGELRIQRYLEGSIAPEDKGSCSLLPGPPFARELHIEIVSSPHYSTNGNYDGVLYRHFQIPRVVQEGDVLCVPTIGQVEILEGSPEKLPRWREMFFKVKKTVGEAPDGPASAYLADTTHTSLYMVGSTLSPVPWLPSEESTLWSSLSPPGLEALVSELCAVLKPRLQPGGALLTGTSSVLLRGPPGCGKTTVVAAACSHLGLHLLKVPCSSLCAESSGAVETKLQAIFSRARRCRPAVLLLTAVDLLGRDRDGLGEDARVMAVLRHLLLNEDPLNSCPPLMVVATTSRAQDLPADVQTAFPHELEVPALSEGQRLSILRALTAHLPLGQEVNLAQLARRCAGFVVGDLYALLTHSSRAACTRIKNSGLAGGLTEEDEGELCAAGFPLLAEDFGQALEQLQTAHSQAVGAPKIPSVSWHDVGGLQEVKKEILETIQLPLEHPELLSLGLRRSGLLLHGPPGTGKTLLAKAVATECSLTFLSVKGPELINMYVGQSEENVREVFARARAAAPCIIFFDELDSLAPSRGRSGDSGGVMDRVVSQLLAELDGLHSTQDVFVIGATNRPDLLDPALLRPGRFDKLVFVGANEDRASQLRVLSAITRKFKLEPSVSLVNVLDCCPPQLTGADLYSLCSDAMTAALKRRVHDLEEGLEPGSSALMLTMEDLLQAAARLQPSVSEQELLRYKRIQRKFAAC
UniProt Q14166: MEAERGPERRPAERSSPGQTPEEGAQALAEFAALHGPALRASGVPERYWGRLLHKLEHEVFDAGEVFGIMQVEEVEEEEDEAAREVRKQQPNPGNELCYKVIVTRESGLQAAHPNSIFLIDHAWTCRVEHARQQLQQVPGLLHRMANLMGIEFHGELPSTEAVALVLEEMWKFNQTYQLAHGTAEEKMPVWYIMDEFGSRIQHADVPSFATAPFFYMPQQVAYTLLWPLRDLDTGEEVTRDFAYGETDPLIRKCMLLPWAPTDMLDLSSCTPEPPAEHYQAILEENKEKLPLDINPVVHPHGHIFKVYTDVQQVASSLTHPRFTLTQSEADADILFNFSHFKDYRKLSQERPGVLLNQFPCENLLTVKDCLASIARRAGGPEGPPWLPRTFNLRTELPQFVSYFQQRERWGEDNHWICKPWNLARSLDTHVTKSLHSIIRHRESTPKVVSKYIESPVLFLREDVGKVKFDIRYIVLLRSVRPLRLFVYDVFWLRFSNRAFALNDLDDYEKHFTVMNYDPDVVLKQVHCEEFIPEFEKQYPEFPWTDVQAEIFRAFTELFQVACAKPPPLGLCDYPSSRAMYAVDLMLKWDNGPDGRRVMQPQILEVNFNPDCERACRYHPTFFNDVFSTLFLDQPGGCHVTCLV

± gives the standard deviation of the averaged measurements. Only a part is listed here, and it is no random draw. Most values lie at the level of the controls, where differences are scatter.

Compound in the test: Nc1ncnc2c1ncn2[C@@H]1O[C@H](COP(=O)(O)OP(=O)(O)NP(=O)(O)O)[C@@H](O)[C@H]1O [adenylyl imidodiphosphate]
In words: NP40-soluble protein abundance relative to vehicle (solubility fold change) (ratio); higher = more soluble protein in presence of AMP-PNP. The procedure, abridged: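 In three independent experiments, Jurkat crude lysate made by Dounce homogenisation was treated for 10 min at room temperature and then 3 min at 37 °C with eight concentrations ranging from 0.1 to 10 mM. It was then solubilised with 0.8% NP40 plus benzonase for 60 min at 4 °C and ultracentrifuged. The supernatant was TMT-labelled for LC-MS/MS, and each value is the fold change against the detergent-processed vehicle for the same replicate, using vsn-normalised intensities.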

As to UniProt Q14CB8 and related entries, the NP40-soluble protein abundance (concentration: 0.1mM) worked out at 1 ± 0.016 and the NP40-soluble protein abundance (concentration: 0.5mM) came to 0.996 ± 0.022.
Consider UniProt Q13740 and related entries, for which the NP40-soluble protein abundance by setting is: (concentration: 0.1mM) 0.958 ± 0.034; (concentration: 0.5mM) 1.01 ± 0.037.
For UniProt Q13884 and related entries, the NP40-soluble protein abundance (concentration: 0.1mM) was determined as 1.01 ± 0.021 and the NP40-soluble protein abundance (concentration: 0.5mM) amounted to 0.994 ± 0.016.
The like results for UniProt Q14789 and related entries were, in that order, 0.985 ± 0.018 and 0.987 ± 0.028.
Consider ECH1 (UniProt Q13011), for which the NP40-soluble protein abundance runs as follows: (concentration: 0.1mM) 0.9807 ± 0.0093; (concentration: 0.5mM) 1 ± 0.036.
On the same counts, the results for UniProt Q13243 are 1.04 ± 0.02 and 1.09 ± 0.04.
In the case of UniProt Q14CX7, the NP40-soluble protein abundance was 1.02 ± 0.025 (concentration: 0.1mM) and 1.04 ± 0.022 (concentration: 0.5mM).
For PLS1 (UniProt Q14651), the NP40-soluble protein abundance is, setting by setting: (concentration: 0.1mM) 1 ± 0.053; (concentration: 0.5mM) 1.051 ± 0.0073.
On the same counts, the results for BECN1 (UniProt Q14457) are 0.9904 ± 0.0073 and 1.01 ± 0.042.
As to EIF3A (UniProt Q14152), the NP40-soluble protein abundance is, setting by setting: (concentration: 0.1mM) 1.03 ± 0.025; (concentration: 0.5mM) 1.03 ± 0.037.
UniProt Q13838 and related entries: the NP40-soluble protein abundance by setting is: (concentration: 0.1mM) 0.99 ± 0.085; (concentration: 0.5mM) 0.879 ± 0.061.
As for GALE (UniProt Q14376), the NP40-soluble protein abundance (concentration: 0.1mM) was found to be 0.988 ± 0.02 and the NP40-soluble protein abundance (concentration: 0.5mM) is 1 ± 0.049.
For UniProt Q14289-2|Q14289, the NP40-soluble protein abundance stood at 1 ± 0.035 (concentration: 0.1mM) and 0.965 ± 0.06 (concentration: 0.5mM).
Consider UniProt Q14008 and related entries, for which the NP40-soluble protein abundance came to 1.004 ± 0.0046 (concentration: 0.1mM) and 1.02 ± 0.02 (concentration: 0.5mM).
On the same counts, the results for UniProt Q13163 and related entries are 1.002 ± 0.005 and 0.954 ± 0.037.
Consider UniProt Q14257 and related entries, for which the NP40-soluble protein abundance reads like this: (concentration: 0.1mM) 0.999 ± 0.046; (concentration: 0.5mM) 1.01 ± 0.023.
On the same counts, the results for LCP2 (UniProt Q13094) are 0.979 ± 0.013 and 0.997 ± 0.057.
Consider GNL2 (UniProt Q13823), for which the NP40-soluble protein abundance (concentration: 0.1mM) amounted to 0.992 ± 0.052 and the NP40-soluble protein abundance (concentration: 0.5mM) came to 1.01 ± 0.046.
On the same counts, the results for PRPF4B (UniProt Q13523) are 1.05 ± 0.058 and 1.04 ± 0.061.
Consider CHAF1A (UniProt Q13111), for which the NP40-soluble protein abundance is, setting by setting: (concentration: 0.1mM) 0.998 ± 0.034; (concentration: 0.5mM) 1.01 ± 0.077.
On the same counts, the results for MAD2L1 (UniProt Q13257) are 1.04 ± 0.044 and 1 ± 0.1.
On the same counts, the results for UniProt Q13472 and related entries are 1.02 ± 0.015 and 1.01 ± 0.052.
Regarding URB2 (UniProt Q14146), the NP40-soluble protein abundance runs as follows: (concentration: 0.1mM) 0.993 ± 0.015; (concentration: 0.5mM) 0.973 ± 0.03.
The like results for SNW1 (UniProt Q13573) were, in that order, 0.988 ± 0.015 and 1.02 ± 0.054.
The like results for CUL4A (UniProt Q13619) were, in that order, 1.01 ± 0.029 and 1 ± 0.026.
The like results for “UniProt Q13555-2|Q13555-8|Q13555-9|A0A0A0MT11|Q13555 and related entries” were, in that order, 0.985 ± 0.024 and 0.957 ± 0.046.
Turning to UBE2V1 (UniProt Q13404), the NP40-soluble protein abundance by setting is: (concentration: 0.1mM) 1.03 ± 0.019; (concentration: 0.5mM) 1.02 ± 0.066.
The like results for FHL3 (UniProt Q13643) were, in that order, 0.962 ± 0.025 and 0.9596 ± 0.0052.
The like results for PAK1 (UniProt Q13153) were, in that order, 0.947 ± 0.011 and 1.01 ± 0.037.
On to UniProt Q12906 and related entries, for which the NP40-soluble protein abundance is 1.02 ± 0.041 (concentration: 0.1mM) and 1.05 ± 0.056 (concentration: 0.5mM).
Consider CDC20 (UniProt Q12834), for which the NP40-soluble protein abundance (concentration: 0.1mM) was 0.998 ± 0.028 and the NP40-soluble protein abundance (concentration: 0.5mM) was 1.03 ± 0.022.
Regarding EEA1 (UniProt Q15075), the NP40-soluble protein abundance runs as follows: (concentration: 0.1mM) 0.98 ± 0.029; (concentration: 0.5mM) 0.997 ± 0.047.
Take GINS1 (UniProt Q14691): the NP40-soluble protein abundance was 0.986 ± 0.016 (concentration: 0.1mM) and 1 ± 0.019 (concentration: 0.5mM).
The like results for GOLGA3 (UniProt Q08378) were, in that order, 1.01 ± 0.037 and 1.02 ± 0.059.
The like results for UniProt Q13190 and related entries were, in that order, 1.045 ± 0.01 and 0.995 ± 0.023.
On the same counts, the results for UniProt Q15054 and related entries are 1.01 ± 0.021 and 0.984 ± 0.026.
In the case of UniProt Q15056-2|Q15056, the NP40-soluble protein abundance is 0.978 ± 0.019 (concentration: 0.1mM) and 0.978 ± 0.058 (concentration: 0.5mM).
Consider CSTF3 (UniProt Q12996), for which the NP40-soluble protein abundance turned out to be 1.02 ± 0.025 (concentration: 0.1mM) and 1.03 ± 0.051 (concentration: 0.5mM).
On the same counts, the results for SLFN5 (UniProt Q08AF3) are 1.09 ± 0.072 and 1.06 ± 0.068.
Consider UniProt Q14934 and related entries, for which the NP40-soluble protein abundance (concentration: 0.1mM) is 0.989 ± 0.029 and the NP40-soluble protein abundance (concentration: 0.5mM) came out at 0.997 ± 0.046.
The like results for UniProt Q13330 and related entries were, in that order, 1.03 ± 0.016 and 1.02 ± 0.028.
As to UniProt Q13191 and related entries, the NP40-soluble protein abundance was found to be 0.993 ± 0.033 (concentration: 0.1mM) and 0.992 ± 0.017 (concentration: 0.5mM).
In the case of UniProt Q13625 and related entries, the NP40-soluble protein abundance was determined as 0.976 ± 0.017 (concentration: 0.1mM) and 0.97 ± 0.014 (concentration: 0.5mM).
As to FRG1 (UniProt Q14331), the NP40-soluble protein abundance was 1.02 ± 0.019 (concentration: 0.1mM) and 1.01 ± 0.015 (concentration: 0.5mM).
With PPP1R8 (UniProt Q12972), the NP40-soluble protein abundance was 0.973 ± 0.022 (concentration: 0.1mM) and 1.01 ± 0.022 (concentration: 0.5mM).
With MORF4L2 (UniProt Q15014), the NP40-soluble protein abundance runs as follows: (concentration: 0.1mM) 0.995 ± 0.02; (concentration: 0.5mM) 1.01 ± 0.043.
As to UniProt Q10567-3|Q10567-4, the NP40-soluble protein abundance by setting is: (concentration: 0.1mM) 0.954 ± 0.015; (concentration: 0.5mM) 1.01 ± 0.012.
The like results for UniProt Q12931 and related entries were, in that order, 1 ± 0.021 and 1.01 ± 0.054.
As to UniProt Q14814 and related entries, the NP40-soluble protein abundance was determined as 0.981 ± 0.026 (concentration: 0.1mM) and 0.99 ± 0.048 (concentration: 0.5mM).
On the same counts, the results for “UniProt Q14C86-6|Q14C86 and related entries” are 0.997 ± 0.011 and 0.984 ± 0.018.
Regarding UniProt Q13608 and related entries, the NP40-soluble protein abundance (concentration: 0.1mM) is 1.09 ± 0.029 and the NP40-soluble protein abundance (concentration: 0.5mM) is 1.08 ± 0.033.
The like results for UniProt Q13564 and related entries were, in that order, 0.992 ± 0.049 and 0.998 ± 0.079.
Turning to NCOA6 (UniProt Q14686), the NP40-soluble protein abundance came out at 0.9786 ± 0.0074 (concentration: 0.1mM) and 0.974 ± 0.02 (concentration: 0.5mM).
The like results for UniProt Q14669-2|Q14669-3 were, in that order, 0.997 ± 0.018 and 1.01 ± 0.03.
As to UniProt Q14596 and related entries, the NP40-soluble protein abundance came to 0.993 ± 0.013 (concentration: 0.1mM) and 0.9976 ± 0.0094 (concentration: 0.5mM).
The like results for UniProt Q13535 and related entries were, in that order, 1 ± 0.05 and 0.989 ± 0.034.
Consider UniProt Q13029 and related entries, for which the NP40-soluble protein abundance (concentration: 0.1mM) was 0.986 ± 0.032 and the NP40-soluble protein abundance (concentration: 0.5mM) was 0.981 ± 0.039.
The like results for TTLL12 (UniProt Q14166) were, in that order, 1.029 ± 0.0028 and 1.02 ± 0.049.
On the same counts, the results for UniProt Q147X3 and related entries are 1.01 ± 0.015 and 0.988 ± 0.016.
On the same counts, the results for UniProt Q15067-2|Q15067 are 1.03 ± 0.025 and 1.06 ± 0.06.
